Laboratory results reported in PubChem BioAssay AID485314 (National Center for Advancing Translational Sciences (NCATS), 2010).
Screen size: about 340,000 compounds; about 4,500 (1.3%) were called active. Inconclusive results, whose numbers are uncertain, are shown with a selection of clear calls. Calls come from the whole dose curve; as a rule, active = well fitted inhibition curve with a large enough effect; inconclusive = small, poorly fitted or top-dose-only effect, or another doubt; inactive = no such curve, though single readings can be large or run the other way. Potencies beside an inconclusive call are fits to weak or partial responses and may not hold up.
% is set by controls: 0 for no effect and ±100 for the full control effect; potency is the fitted concentration of half-maximal effect.

What follows are compounds tested against DNA polymerase beta (Homo sapiens) (UniProt P06746) (assay: qHTS Assay for Inhibitors of DNA Polymerase Beta). Conditions: Pol beta primer extension/strand displacement, fluorescence kinetic; activity change, negative = inhibition: at 114 µM (top of the series).
Outline: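 Curves were derived by four-parameter Hill fits of normalized qHTS data. The kinetic fluorescent primer-extension read was taken at 0 and 10 min after 50 nM substrate, following a 15 min room-temperature preincubation of 10 nM enzyme with compounds.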
In the case of `Fc1ccc2nc(Nc3nc4cc5c(cc4s3)OCO5)sc2c1`, the Potency is reported as inconclusive: 70.8 µM [inhibitor, single point].
With `Cc1cc(O)c(-c2cc(C(=O)Nc3sc4c(c3C(=O)NCc3ccco3)CCC4)[nH]n2)cc1C` the activity change, negative = inhibition was inconclusive: -32.3% [inhibitor].
`O=C(NC(Cc1c[nH]c2ccccc12)C(=O)O)/C(=C/c1ccco1)NC(=O)c1ccccc1` (stereo not drawn) was tested, and the Potency was inconclusive: 31.6 µM [inhibitor, full curve, poor fit].
In the case of `Cc1ccc(CCNC(=O)c2cc3c(s2)-c2c(C)cccc2OC3)cc1`, the Potency is reported as active: 3.55 µM.
With `CCc1ccc(N2CCN(CCNC(=O)Nc3ccccc3)CC2)cc1` the Potency was inconclusive: 28.2 µM [inhibitor, full curve].
In the case of `CCCn1c(=O)c(C(=O)Nc2ncccc2C)c(O)c2ccccc21`, the Potency is reported as inconclusive: 89.1 µM [inhibitor, single point].
In the case of `Cc1ccc2nc(COc3ccccc3NC(=O)C(C)(C)C)cc(=O)n2c1`, the Potency is reported as inconclusive: 89.1 µM [inhibitor, single point].
`O=C(Nc1ccc(S(=O)(=O)Nc2nccs2)cc1)c1nn(-c2ccc(F)cc2)ccc1=O` was tested, and the Potency was inconclusive: 89.1 µM [inhibitor, single point].
For `COC(=O)N/N=C/c1cc(Cl)c(OCc2ccccc2F)c(OC)c1`, the Potency was inconclusive: 5.01 µM [inhibitor, full curve, poor fit].
In the case of `Cn1c(SCc2cc(=O)n3cc(Br)ccc3n2)nnc1C1COc2ccccc2O1` (stereo not drawn), the Potency is reported as inconclusive: 15.8 µM [inhibitor, full curve].
With `COc1ccccc1NC(=O)COC(=O)CCS(=O)(=O)c1ccc(C)cc1` the activity change, negative = inhibition was inconclusive: -32.6% [inhibitor].
With `Cc1ccc(NC(=O)CSc2ccc(-c3ccccn3)nn2)cc1` the Potency was inconclusive: 2.51 µM [inhibitor, full curve, poor fit].
With `O=C(COc1ccc(Cl)cc1)Nc1ccc2nc(SCC(=O)N3CCCC3)sc2c1` the Potency was inconclusive: 56.2 µM [inhibitor, partial curve, poor fit].
In the case of `COc1ccc(OC)c(NC(=O)CSc2ccc(-c3sc(C)nc3C)nn2)c1`, the Potency is reported as inconclusive: 28.2 µM [inhibitor, full curve].
In the case of `O=C(O)c1ccc(Cn2ccc3ccccc32)o1`, the Potency is reported as inconclusive: 25.1 µM [inhibitor, partial curve].
`COc1ccc(C(=O)Nc2ccc(-c3nnc4n3CCCCC4)cc2)cc1OC` was tested, and the Potency was active: 31.6 µM.
With `O=C1c2ccccc2N2C(=O)c3ccccc3[C@H]2N1c1ccccc1` the Potency was inconclusive: 0.141 µM [inhibitor, full curve].
`CCOc1ccc(C(=O)Nc2ccc(NC(=O)c3ccco3)c(Cl)c2)cc1Br` was tested, and the Potency was inconclusive: 35.5 µM [inhibitor, single point].
`Cc1cc(/C=C2/SC(=O)N(CC(=O)OC(C)C)C2=O)c(C)n1C` was tested, and the Potency was inconclusive: 28.2 µM [inhibitor, full curve, poor fit].
For `CN1CCN(C(=S)Nc2cc([N+](=O)[O-])ccc2Cl)CC1`, the Potency was inconclusive: 39.8 µM [inhibitor, partial curve].
In the case of `COc1ccc(-c2csc(NC(=O)C3CCN(C(=O)c4ccc(F)cc4)CC3)n2)cc1OC`, the Potency is reported as inconclusive: 25.1 µM [inhibitor, single point].
With `Cc1cccc2cc3cccc(C)c3nc12` the activity change, negative = inhibition was inconclusive: -70.9% [inhibitor].
In the case of `Cc1ccc(O)c(NC(=O)c2cc3nc4c(c(C(F)(F)F)n3n2)CCc2ccccc2-4)c1`, the Potency is reported as “inactive”.
With `Cc1ccc(OCC(=O)Nc2cc(NC(=O)COc3ccc(C)c(C)c3)cc(C(=O)O)c2)cc1C` the Potency was active: 50.1 µM.
With `CSc1nsc2nc(=O)c(/C=C3\C=Nc4ccccc43)c(N)n12` the Potency was “inactive”.
With `Cc1cc(C(=O)Nc2ccc(F)cc2C)n(-c2ccccc2)n1` the activity change, negative = inhibition was inconclusive: -48.1% [inhibitor].
In the case of `CCc1ccc(S(=O)(=O)c2nnn3c2nc(NC(C)C)c2sccc23)cc1`, the Potency is reported as inconclusive: 31.6 µM [inhibitor, single point].
In the case of `Cc1c(C(=O)N2CCN(c3ccccc3)CC2)sc2nc3n(c(=O)c12)CCC3`, the activity change, negative = inhibition is reported as inconclusive: -42.7% [inhibitor].
For `Oc1ccc(Nc2nc(-c3ccccc3O)nc3ccccc23)cc1`, the Potency was inconclusive: 35.5 µM [inhibitor, single point].
With `COc1cc(NC(=O)CSc2ncccc2C(=O)OC(C)C)cc(OC)c1` the Potency was inconclusive: 0.631 µM [inhibitor, full curve, poor fit].
For `COc1ccc(CCNC(=O)CS(=O)Cc2nc(-c3ccccc3F)oc2C)cc1OC` (stereo not drawn), the activity change, negative = inhibition was inconclusive: -37.4% [inhibitor].
In the case of `C/C(=N\Nc1ccc(Cl)c(C(=O)O)c1)c1cccc([N+](=O)[O-])c1`, the Potency is reported as inconclusive: 15.8 µM [inhibitor, full curve, poor fit].
In the case of `CCN(CC)c1ccc(C=Nc2ccc(C)cc2C)c(O)c1`, the Potency is reported as “inactive”.
In the case of `CCc1cc2c(cc3c(=O)n(CC(=O)NC4CCC(C)CC4)ncn32)s1` (stereo not drawn), the Potency is reported as “inactive”.
With `Cc1ccc(-c2cc(C(=O)N/N=C/C(Br)=C/c3ccccc3)n[nH]2)o1` the Potency was active: 35.5 µM.
For `Cc1ccc2cc3cc(C(=O)NCc4ccco4)oc3nc2c1`, the Potency was active: 79.4 µM.
With `CC(=O)c1c(C)[nH]c(C(=O)OCC(=O)Nc2cccc(S(=O)(=O)N3CCCC3)c2)c1C` the Potency was inconclusive: 89.1 µM [inhibitor, single point].
In the case of `Cc1ccc(C(c2nnnn2Cc2cccs2)N2CCN(Cc3ccc4c(c3)OCO4)CC2)cc1` (stereo not drawn), the Potency is reported as inconclusive: 2.82 µM [inhibitor, full curve, poor fit].
`COc1ccc(NC(=O)c2cc(-c3ccc(C)o3)nc3ccccc23)cc1OC` was tested, and the Potency was active: 35.5 µM.
For `Cc1ccc(C)n1-c1cc(S(=O)(=O)N2CCOCC2)ccc1N1CCCC1`, the Potency was inconclusive: 28.2 µM [inhibitor, single point].
With `COc1ccc(S(=O)(=O)N2CCN(Cc3nc4ccc(C)cc4o3)CC2)cc1Cl` the Potency was “inactive”.
`Fc1ccc(C2=CC(c3ccco3)n3nnnc3N2)cc1` (stereo not drawn) was tested, and the Potency was “inactive”.
For `COc1ccccc1Nc1nn2c(=O)c3ccc(C(=O)N4CCCC(C)C4)cc3nc2s1` (stereo not drawn), the Potency was inconclusive: 10 µM [inhibitor, full curve].
